Earlier results, collected in patent US11123309B2, “Methods for drug delivery, tumor imaging, and oxidative dehydrogenation using hierarchical ZSM-5 complex” (Imam Abdulrahman Bin Faisal University, priority 2018, dated 2021).

For `COC1=C(OC)C(=O)C(C/C=C(\C)CC/C=C(\C)CC/C=C(\C)CC/C=C(\C)CC/C=C(\C)CC/C=C(\C)CC/C=C(\C)CC/C=C(\C)CC/C=C(\C)CCC=C(C)C)=C(C)C1=O` [Coenzyme Q10], the solubility in water is listed as less than 0.7 ng/mL.
